Laboratory results from publication PMC4491177, “Co-translational capturing of nascent ribosomal proteins by their dedicated chaperones” (Nature Communications, 2015).
Changes are numbered by the printed parent chain. No constants are given. Whether binding was seen depends on the method and setting. Some results given as binding are weak or reduced against the parent protein; the word gives no strength. Tags and fused reporters may be left off the sequences shown.

Key:
[1] = target: T1, Rrb1.60C (yeast two-hybrid fusion) (S. cerevisiae) (UniProt Q04225); assay: two-hybrid; bait fused to the Gal4 DNA-binding domain, prey to the Gal4 activation domain, reporter strain PJ69-4A; HIS3 and ADE2 reporters, plates 3 days at 30 °C
T1 sequence: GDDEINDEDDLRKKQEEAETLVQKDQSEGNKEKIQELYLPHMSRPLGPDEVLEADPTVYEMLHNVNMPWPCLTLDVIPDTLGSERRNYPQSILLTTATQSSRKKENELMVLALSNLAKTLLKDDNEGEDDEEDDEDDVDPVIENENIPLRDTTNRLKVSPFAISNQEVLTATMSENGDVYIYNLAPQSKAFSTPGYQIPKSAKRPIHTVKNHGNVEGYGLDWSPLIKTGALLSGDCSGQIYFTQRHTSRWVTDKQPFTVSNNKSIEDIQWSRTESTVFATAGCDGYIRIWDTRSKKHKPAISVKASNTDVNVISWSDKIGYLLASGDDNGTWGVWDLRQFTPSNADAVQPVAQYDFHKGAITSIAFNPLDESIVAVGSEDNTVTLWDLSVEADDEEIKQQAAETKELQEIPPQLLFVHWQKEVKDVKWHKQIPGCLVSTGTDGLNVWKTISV

[2] = target: T2, Rrb1 (yeast two-hybrid fusion) (S. cerevisiae) (UniProt Q04225); assay: as above
T2 sequence: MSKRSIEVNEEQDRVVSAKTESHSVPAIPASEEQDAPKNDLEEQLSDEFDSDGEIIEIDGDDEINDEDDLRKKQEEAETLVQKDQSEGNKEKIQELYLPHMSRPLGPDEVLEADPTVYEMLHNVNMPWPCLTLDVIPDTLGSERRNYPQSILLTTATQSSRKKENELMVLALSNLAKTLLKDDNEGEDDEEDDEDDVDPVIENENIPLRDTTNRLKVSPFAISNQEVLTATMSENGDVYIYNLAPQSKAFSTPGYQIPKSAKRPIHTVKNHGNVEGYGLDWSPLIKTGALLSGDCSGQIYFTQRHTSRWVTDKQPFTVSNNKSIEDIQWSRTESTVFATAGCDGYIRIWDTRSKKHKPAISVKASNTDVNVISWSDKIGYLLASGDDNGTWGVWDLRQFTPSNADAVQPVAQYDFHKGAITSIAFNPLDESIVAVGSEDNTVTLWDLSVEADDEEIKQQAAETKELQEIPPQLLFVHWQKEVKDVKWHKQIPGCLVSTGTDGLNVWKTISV

[3] = target: T3, Sqt1 E315A (yeast two-hybrid fusion) (S. cerevisiae) (UniProt P35184); assay: as above
T3 sequence: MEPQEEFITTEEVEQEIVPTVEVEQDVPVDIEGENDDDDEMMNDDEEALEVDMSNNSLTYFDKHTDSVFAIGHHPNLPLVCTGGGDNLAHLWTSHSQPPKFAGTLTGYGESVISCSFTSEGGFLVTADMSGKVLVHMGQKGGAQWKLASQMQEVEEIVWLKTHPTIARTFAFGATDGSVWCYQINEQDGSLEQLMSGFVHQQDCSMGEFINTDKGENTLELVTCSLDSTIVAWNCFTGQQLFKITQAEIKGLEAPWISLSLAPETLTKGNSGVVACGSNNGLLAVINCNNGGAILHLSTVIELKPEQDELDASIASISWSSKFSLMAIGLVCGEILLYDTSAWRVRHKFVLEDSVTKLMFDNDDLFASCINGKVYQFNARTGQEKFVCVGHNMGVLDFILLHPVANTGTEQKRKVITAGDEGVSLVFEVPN

[4] = target: T4, Sqt1 E156K (yeast two-hybrid fusion) (S. cerevisiae) (UniProt P35184); assay: as above
T4 sequence: T3 sequence with E156K, A315E

[5] = target: T5, Sqt1 (yeast two-hybrid fusion) (S. cerevisiae) (UniProt P35184); assay: as above
T5 sequence: T3 sequence with A315E

[6] = target: T6, Sqt1 Glu315 to lysine (yeast two-hybrid fusion) (S. cerevisiae) (UniProt P35184); assay: as above
T6 sequence: T3 sequence with A315K

[7] = target: T7, Sqt1.53C (yeast two-hybrid fusion) (S. cerevisiae) (UniProt P35184); assay: as above
T7 sequence: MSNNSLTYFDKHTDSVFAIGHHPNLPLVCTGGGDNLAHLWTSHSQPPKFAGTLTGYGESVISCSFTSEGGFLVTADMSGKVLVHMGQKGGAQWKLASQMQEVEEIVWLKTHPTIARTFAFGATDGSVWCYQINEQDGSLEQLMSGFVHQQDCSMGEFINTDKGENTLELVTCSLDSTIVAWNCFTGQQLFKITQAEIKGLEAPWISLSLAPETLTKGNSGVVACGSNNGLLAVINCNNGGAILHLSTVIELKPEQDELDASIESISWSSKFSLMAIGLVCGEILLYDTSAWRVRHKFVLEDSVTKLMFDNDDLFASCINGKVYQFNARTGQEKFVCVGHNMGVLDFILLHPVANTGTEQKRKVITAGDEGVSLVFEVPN

[8] = target: T8, Sqt1 E110K (yeast two-hybrid fusion) (S. cerevisiae) (UniProt P35184); assay: as above
T8 sequence: T3 sequence with E110K, A315E

[9] = target: T9, Sqt1 D420K (yeast two-hybrid fusion) (S. cerevisiae) (UniProt P35184); assay: as above
T9 sequence: T3 sequence with A315E, D420K

[10] = target: T10, NTAP-Rrb1 (S. cerevisiae) (UniProt Q04225); assay: affinity purification of a TAP-tagged bait from yeast cells (in vivo co-purification); Sqt1-TAP or NTAP-Rrb1 bait; yEGFP fusions or 2xHA-tagged ribosomal proteins as prey; Supplementary Fig. 3b,c, methods not shown
T10 sequence: T2 sequence

[11] = target: T11, ScSqt1.53C (co-expressed with Rpl10(1–20)-(His)6 for the co-structure) (S. cerevisiae) (UniProt P35184); assay: crystal structure; complex co-expressed in E. coli, co-purified via Rpl10(1–20)-(His)6 by Ni-affinity and size-exclusion chromatography; sitting-drop vapor diffusion at 291 K; both purified
T11 sequence: T7 sequence

B1: Rpl3 amino acids 1–15 (yeast two-hybrid fusion) (domain or fragment, UniProt P14126 1-15)
chain: MSHRKYEAPRHGHLG
With B1 the binding [1] was “binds” and the binding [2] was “binds”.

B2: Rpl10 (yeast two-hybrid fusion) (protein, UniProt P41805 1-221)
chain: MARRPARCYRYQKNKPYPKSRYNRAVPDSKIRIYDLGKKKATVDEFPLCVHLVSNELEQLSSEALEAARICANKYMTTVSGRDAFHLRVRVHPFHVLRINKMLSCAGADRLQQGMRGAWGKPHGLAARVDIGQIIFSVRTKDSNKDVVVEGLRRARYKFPGQQKIILSKKWGFTNLDRPEYLKKREAGEVKDDGAFVKFLSKKGSLENNIREFPEYFAAQA
For B2, the binding [3] was “binds”, the binding [4] was “binds” and the binding [5] was “binds”. The binding [6] was “no binding”, the binding [7] was “binds” and the binding [8] was “binds”. For the same binder, the binding [9] was “binds”.

B3: L3-N (amino acids 1–23) yEGFP fusion protein (peptide, UniProt P14126 1-23)
chain: MSHRKYEAPRHGHLGFLPRKRAA
With B3 the binding [10] was “binds”.

B4: Rpl10(1–20)-(His)6 (peptide)
chain: MARRPARCYRYQKNKPYPKS
In the case of B4, the binding [11] is reported as “binds”.
